According to the supplement of paper PMC12067093, “Discovery and optimisation of a covalent ligand for TRIM25 and its application to targeted protein ubiquitination” (Chemical Science, 2025):
The list shows a part of the results.

Protein sequences, listed by entry. Tags and fused reporters are not part of them. Lines headed by an entry give the natural chain unless they say otherwise; changes in a name come on top.
UniProt Q9UBE0: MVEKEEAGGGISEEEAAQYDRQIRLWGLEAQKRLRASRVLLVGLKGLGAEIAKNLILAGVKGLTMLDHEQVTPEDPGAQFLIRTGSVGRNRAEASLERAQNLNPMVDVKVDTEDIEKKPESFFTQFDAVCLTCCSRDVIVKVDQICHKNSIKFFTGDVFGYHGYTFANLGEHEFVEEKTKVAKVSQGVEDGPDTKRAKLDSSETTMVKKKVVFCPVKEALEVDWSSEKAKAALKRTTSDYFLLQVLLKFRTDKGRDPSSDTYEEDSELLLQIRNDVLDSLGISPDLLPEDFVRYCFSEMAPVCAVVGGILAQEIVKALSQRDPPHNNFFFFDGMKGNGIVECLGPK
UniProt Q13761, whole entry: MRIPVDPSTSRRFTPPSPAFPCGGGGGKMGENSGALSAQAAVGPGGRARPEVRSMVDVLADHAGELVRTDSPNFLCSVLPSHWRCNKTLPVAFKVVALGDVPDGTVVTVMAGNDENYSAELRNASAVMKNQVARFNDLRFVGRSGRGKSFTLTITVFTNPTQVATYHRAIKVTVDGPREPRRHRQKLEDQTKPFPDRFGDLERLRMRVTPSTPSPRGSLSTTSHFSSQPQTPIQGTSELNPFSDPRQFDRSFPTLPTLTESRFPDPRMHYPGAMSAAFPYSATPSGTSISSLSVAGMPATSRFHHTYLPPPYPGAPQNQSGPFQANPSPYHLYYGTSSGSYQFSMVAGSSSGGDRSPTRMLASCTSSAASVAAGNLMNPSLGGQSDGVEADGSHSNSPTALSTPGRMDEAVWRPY
UniProt Q96T51: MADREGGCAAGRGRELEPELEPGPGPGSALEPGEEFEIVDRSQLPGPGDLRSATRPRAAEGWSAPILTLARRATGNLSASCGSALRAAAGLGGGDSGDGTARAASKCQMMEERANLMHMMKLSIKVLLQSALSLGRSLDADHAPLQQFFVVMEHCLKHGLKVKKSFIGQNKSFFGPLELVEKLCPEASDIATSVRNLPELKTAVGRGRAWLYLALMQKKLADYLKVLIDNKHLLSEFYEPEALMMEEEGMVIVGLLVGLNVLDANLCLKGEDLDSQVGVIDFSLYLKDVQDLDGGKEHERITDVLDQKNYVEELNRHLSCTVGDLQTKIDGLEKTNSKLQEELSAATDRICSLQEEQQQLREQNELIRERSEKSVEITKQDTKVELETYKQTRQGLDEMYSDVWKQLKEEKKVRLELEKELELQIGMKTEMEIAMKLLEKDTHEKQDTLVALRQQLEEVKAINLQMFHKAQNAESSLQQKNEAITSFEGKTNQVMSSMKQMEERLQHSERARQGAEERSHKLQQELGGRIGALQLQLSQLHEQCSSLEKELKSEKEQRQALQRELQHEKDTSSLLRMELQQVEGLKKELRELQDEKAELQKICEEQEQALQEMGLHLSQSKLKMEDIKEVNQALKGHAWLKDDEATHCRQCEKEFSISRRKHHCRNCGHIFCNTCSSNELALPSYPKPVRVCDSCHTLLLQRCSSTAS
UniProt Q5VWQ0: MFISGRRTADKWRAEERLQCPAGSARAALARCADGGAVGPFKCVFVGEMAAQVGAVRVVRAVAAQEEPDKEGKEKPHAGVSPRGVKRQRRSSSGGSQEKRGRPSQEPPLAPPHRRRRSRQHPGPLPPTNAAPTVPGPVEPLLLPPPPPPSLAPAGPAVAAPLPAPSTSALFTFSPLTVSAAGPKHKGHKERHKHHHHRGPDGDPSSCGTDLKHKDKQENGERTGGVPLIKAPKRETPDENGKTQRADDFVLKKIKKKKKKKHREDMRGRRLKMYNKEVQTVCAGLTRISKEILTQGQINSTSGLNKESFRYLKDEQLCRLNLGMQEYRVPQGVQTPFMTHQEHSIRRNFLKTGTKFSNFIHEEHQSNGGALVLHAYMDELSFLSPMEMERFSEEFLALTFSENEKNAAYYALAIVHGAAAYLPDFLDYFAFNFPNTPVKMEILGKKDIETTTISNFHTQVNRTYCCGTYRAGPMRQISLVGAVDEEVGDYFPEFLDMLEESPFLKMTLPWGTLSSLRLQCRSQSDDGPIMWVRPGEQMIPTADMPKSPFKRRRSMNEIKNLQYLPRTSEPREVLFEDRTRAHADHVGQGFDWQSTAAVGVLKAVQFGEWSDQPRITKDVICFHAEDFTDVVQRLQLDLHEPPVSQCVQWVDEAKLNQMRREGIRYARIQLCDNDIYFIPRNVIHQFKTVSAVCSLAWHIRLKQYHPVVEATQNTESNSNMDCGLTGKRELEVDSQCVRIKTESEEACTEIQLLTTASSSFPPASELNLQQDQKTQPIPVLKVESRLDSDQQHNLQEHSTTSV
UniProt Q8N122, whole entry, looked up: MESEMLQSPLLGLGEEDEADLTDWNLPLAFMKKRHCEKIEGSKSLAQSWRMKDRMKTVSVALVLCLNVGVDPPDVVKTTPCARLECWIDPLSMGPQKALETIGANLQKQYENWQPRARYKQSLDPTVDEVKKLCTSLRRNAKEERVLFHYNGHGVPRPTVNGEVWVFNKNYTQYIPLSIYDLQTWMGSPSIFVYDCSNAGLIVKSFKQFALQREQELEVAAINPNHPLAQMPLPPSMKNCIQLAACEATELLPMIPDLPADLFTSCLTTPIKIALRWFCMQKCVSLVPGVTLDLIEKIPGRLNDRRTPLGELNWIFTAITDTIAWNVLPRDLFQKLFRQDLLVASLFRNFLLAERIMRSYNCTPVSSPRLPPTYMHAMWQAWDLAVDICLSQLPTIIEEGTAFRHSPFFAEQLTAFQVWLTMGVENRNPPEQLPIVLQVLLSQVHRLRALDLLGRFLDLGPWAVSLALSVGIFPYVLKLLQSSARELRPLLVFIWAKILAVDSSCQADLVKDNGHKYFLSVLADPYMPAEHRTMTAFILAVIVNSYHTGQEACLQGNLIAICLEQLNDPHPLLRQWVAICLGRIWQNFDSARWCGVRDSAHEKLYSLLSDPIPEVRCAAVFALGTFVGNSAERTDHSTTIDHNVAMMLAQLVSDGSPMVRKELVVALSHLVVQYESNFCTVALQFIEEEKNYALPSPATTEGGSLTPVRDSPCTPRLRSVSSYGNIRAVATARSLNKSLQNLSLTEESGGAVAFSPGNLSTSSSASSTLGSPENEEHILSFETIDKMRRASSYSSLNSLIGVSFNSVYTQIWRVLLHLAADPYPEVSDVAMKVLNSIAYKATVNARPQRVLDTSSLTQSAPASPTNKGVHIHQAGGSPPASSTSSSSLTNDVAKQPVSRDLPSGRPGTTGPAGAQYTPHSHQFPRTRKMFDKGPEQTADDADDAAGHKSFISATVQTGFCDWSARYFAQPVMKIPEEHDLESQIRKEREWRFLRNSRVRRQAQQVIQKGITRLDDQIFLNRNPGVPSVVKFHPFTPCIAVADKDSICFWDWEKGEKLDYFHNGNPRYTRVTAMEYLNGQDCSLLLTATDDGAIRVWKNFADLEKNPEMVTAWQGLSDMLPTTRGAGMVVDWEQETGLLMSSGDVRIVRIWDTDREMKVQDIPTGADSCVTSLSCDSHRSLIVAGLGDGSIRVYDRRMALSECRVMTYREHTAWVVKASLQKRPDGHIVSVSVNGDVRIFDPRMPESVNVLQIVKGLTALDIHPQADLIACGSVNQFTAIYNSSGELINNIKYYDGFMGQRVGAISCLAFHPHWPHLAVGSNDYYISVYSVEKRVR
UniProt Q5JTH9: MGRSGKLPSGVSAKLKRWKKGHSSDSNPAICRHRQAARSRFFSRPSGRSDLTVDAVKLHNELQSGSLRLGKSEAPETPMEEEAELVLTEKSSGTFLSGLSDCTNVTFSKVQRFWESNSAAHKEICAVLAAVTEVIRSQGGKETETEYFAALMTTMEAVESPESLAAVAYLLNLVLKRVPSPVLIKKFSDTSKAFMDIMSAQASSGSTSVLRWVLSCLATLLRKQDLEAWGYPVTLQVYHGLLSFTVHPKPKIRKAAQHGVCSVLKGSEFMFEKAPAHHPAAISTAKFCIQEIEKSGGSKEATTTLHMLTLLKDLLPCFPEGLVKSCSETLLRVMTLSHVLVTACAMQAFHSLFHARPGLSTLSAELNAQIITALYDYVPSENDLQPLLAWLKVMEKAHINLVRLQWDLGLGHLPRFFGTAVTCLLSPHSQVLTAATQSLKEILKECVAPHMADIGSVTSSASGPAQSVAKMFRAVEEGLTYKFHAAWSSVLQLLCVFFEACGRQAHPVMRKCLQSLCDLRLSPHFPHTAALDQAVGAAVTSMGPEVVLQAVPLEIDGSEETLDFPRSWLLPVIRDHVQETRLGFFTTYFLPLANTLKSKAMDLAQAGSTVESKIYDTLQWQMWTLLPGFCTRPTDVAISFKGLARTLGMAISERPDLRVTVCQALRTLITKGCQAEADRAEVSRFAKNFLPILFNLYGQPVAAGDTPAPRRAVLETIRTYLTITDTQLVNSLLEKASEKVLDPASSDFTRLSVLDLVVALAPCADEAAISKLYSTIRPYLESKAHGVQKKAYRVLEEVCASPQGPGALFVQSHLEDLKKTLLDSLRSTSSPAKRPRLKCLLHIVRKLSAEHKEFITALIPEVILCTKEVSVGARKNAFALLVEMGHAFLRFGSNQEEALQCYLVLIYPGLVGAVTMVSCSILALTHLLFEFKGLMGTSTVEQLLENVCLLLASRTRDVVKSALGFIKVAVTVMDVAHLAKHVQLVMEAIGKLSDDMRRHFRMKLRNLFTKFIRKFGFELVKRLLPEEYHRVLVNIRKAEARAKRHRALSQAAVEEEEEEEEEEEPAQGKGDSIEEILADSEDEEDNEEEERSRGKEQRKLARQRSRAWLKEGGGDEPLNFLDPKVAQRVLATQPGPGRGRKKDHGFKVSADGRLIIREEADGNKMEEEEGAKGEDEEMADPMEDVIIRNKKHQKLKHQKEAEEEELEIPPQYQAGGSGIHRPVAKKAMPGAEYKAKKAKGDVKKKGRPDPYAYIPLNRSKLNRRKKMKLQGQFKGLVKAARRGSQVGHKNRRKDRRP
UniProt O00442: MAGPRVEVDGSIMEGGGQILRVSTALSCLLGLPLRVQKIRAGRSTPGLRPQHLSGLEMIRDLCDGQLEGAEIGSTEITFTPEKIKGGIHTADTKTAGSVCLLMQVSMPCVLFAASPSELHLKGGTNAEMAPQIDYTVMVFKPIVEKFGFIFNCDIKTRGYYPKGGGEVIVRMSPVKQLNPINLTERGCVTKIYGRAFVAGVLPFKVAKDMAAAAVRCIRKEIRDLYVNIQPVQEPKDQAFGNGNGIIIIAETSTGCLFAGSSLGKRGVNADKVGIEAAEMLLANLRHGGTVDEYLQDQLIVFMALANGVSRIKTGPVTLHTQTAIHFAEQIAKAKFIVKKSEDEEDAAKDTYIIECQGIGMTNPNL
UniProt Q9BY42: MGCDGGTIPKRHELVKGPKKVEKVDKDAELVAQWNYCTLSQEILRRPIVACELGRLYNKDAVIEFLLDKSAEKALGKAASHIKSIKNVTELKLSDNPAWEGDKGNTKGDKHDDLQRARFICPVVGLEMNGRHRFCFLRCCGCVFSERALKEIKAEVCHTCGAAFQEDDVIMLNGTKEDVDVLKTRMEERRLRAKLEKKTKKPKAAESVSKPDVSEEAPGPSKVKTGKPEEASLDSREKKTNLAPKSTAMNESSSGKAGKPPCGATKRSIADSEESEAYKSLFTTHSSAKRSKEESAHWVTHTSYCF
UniProt Q96ER3: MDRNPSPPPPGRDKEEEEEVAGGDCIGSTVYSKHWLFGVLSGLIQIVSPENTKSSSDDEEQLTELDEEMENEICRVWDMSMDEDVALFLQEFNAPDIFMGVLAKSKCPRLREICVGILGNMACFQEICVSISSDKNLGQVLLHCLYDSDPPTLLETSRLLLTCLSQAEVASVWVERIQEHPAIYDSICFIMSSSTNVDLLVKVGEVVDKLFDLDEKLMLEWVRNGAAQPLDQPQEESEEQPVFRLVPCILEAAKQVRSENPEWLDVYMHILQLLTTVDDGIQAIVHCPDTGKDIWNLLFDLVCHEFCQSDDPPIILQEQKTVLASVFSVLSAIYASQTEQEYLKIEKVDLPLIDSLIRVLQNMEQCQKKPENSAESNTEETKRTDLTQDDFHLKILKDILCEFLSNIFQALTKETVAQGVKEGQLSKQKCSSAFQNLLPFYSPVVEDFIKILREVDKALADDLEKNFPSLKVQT
UniProt Q8IZ73: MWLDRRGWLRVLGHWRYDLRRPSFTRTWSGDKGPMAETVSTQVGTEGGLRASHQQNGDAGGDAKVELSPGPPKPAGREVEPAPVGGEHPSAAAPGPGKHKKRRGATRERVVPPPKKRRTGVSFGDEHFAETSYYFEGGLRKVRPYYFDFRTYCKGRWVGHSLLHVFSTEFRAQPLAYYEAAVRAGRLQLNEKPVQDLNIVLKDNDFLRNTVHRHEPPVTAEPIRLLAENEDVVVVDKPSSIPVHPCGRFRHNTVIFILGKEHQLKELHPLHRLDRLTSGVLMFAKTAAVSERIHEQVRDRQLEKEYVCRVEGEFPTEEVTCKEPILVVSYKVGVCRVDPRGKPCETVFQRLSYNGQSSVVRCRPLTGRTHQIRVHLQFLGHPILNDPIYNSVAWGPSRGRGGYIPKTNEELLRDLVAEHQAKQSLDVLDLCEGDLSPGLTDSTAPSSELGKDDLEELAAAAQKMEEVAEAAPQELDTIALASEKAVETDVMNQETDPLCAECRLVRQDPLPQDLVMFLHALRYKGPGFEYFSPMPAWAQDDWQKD

Compound: CC1Cc2ccccc2N1C(=O)C1CCCN(C1)C(=O)CCl (mixture of isomers) [TRIM25 ligand 11 (diastereomer mixture)]
Assay: probe-labelled cysteine peptide fold change vs DMSO (competition) (log2 fold change); higher = less target engagement (more negative = stronger competition)
Conditions: 10 µM; THP-1; incubation time: 4 h
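Note: competitive chemoproteomic profiling in live THP-1 cells with an iodoacetamide desthiobiotin (IA-DTB) probe, comparing probe-labelled peptide intensities in compound-treated cells against DMSO-treated controls.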

Target | probe-labelled cysteine peptide fold change
SAE1_Q9UBE0_130+134_KPESFFTQFDAVCLTCCSR (UniProt Q9UBE0) | 0.16
SACS_Q9NZJ4_2255_GNSFKPETMFAATDLYTAEHQDIVCLLQPILNENSHSFR (UniProt Q9NZJ4) | 0.096
RPS5_P46782_66_KAQCPIVER (UniProt P46782) | 0.0344
RRP1B_Q14684_628_VMSNLVEHNGVLESEAGQPQALGSSGTCSSLKK (UniProt Q14684) | -0.0306
RUNX3_Q13761_22_RFTPPSPAFPCGGGGGK (UniProt Q13761) | 0.0129

Same assay, conditions: 50 µM; THP-1; incubation time: 4 h

Target | probe-labelled cysteine peptide fold change
RPS3_P23396_134_GCEVVVSGK (UniProt P23396) | 0.0505
RPS11_P62280_131_DVQIGDIVTVGECRPLSKTVR (UniProt P62280) | 0.41
S100A11_P31949_13_CIESLIAVFQK (UniProt P31949) | -0.445
RUFY1_Q96T51_107_CQMMEER (UniProt Q96T51) | -0.102
RSBN1_Q5VWQ0_671_IQLCDNDIYFIPR (UniProt Q5VWQ0) | 0.13
RPTOR_Q8N122_1168_VQDIPTGADSCVTSLSCDSHR (UniProt Q8N122) | -0.0796
RUFY1_Q96T51_675_NCGHIFCNTCSSNELALPSYPK (UniProt Q96T51) | -0.043
RRP12_Q5JTH9_673_GCQAEADRAEVSR (UniProt Q5JTH9) | -0.00566
RPS20_P60866_70_TPCGEGSK (UniProt P60866) | 0.021
RPS8_P62241_71+72_LDVGNFSWGSECCTR (UniProt P62241) | -0.0577
RTCA_O00442_63_DLCDGQLEGAEIGSTEITFTPEK (UniProt O00442) | -0.346
RSPRY1_Q96DX4_208_NTSAVLGCLAEK (UniProt Q96DX4) | 0.028
RPS8_P62241_72_LDVGNFSWGSECCTRK (UniProt P62241) | -0.212
RTFDC1_Q9BY42_262_AGKPPCGATK (UniProt Q9BY42) | -0.1
RPS3_P23396_119_RACYGVLR (UniProt P23396) | 0.045
SAAL1_Q96ER3_366_VLQNMEQCQK (UniProt Q96ER3) | -0.0617
RPRD1B_Q9NQG5_100_EADEGCK (UniProt Q9NQG5) | 0.0828
RPS8_P62241_100_NCIVLIDSTPYR (UniProt P62241) | -0.0705
RRP1_P56182_198_FIDPFCR (UniProt P56182) | 0.156

Target | probe-labelled cysteine peptide fold change
SAMD9_Q5K651_721_LEAMIQNCADSSKPTSTK (UniProt Q5K651) | 0.0441
RPS27A_P62979_126_RECPSDECGAGVFMASHFDR (UniProt P62979) | -0.3
RPUSD2_Q8IZ73_344_GKPCETVFQR (UniProt Q8IZ73) | 0.0381
RUVBL2_Q9Y230_413_YAIQLITAASLVCR (UniProt Q9Y230) | -0.00307
RRP12_Q5JTH9_261_AAQHGVCSVLK (UniProt Q5JTH9) | -0.234
RPUSD2_Q8IZ73_321_VEGEFPTEEVTCK (UniProt Q8IZ73) | 0.152
RSBN1_Q5VWQ0_621_DVICFHAEDFTDVVQR (UniProt Q5VWQ0) | 0.189
RPS12_P25398_106_KVVGCSCVVVK (UniProt P25398) | -0.0639
RPS4Y1_P22090_181_FDTGNLCMVIGGANLGR (UniProt P22090) | 0.0167
SAAL1_Q96ER3_144_NLGQVLLHCLYDSDPPTLLETSR (UniProt Q96ER3) | -0.0865
RPTOR_Q8N122_1168+1174_VQDIPTGADSCVTSLSCDSHR (UniProt Q8N122) | 0.059
RPS12_P25398_92_LGEWVGLCK (UniProt P25398) | -0.0304
RPS21_P63220_17_CSASNR (UniProt P63220) | -0.0654
RPP40_O75818_235_DLQCPVLQSSELEGTPEVSCR (UniProt O75818) | 0.729
SAE1_Q9UBE0_130+134_KPESFFTQFDAVCLTCCSR (UniProt Q9UBE0) | 0.0845
SACS_Q9NZJ4_2255_GNSFKPETMFAATDLYTAEHQDIVCLLQPILNENSHSFR (UniProt Q9NZJ4) | 0.0946
RPS5_P46782_66_KAQCPIVER (UniProt P46782) | -0.0951
RRP1B_Q14684_628_VMSNLVEHNGVLESEAGQPQALGSSGTCSSLKK (UniProt Q14684) | -0.508
RUNX3_Q13761_22_RFTPPSPAFPCGGGGGK (UniProt Q13761) | -0.279
